These are yes or no findings as the source states them, for the method shown. For part of these data: Binding seen in cells or lysates may run through a third protein. Some binding calls cover weakened binding; strength is not graded here.
Columns and labels:
[1] = target: endogenous GRK2 (human (endogenous in HeLa)) (UniProt P25098); experiment: co-IP; asynchronously growing HeLa transiently transfected with GRK2-WT in the presence or absence of c-Abl (with or without 50 µM adaphostin); lysis buffer B; anti-GRK2 immunoprecipitation, anti-c-Abl blot
GRK2-wt = GRK2-wt (UniProt P25098); experiment: as above
[2] = target: Abl2 SH3 domain (SH3 domain-array II) (UniProt P42684); experiment: peptide or protein array; purified recombinant GRK2 (15 μg/μl) overlaid on the SH3 domain-array II (Panomics MA3011); detected with anti-GRK2 (C-15); spots similar to or stronger than the positive controls taken as hits; both purified

Chains of the proteins cited; added tags and fusions are not shown. Residues count along the entry.
UniProt P42684, residues 107-167: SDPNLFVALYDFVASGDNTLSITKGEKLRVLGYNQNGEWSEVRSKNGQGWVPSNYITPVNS
UniProt P00519: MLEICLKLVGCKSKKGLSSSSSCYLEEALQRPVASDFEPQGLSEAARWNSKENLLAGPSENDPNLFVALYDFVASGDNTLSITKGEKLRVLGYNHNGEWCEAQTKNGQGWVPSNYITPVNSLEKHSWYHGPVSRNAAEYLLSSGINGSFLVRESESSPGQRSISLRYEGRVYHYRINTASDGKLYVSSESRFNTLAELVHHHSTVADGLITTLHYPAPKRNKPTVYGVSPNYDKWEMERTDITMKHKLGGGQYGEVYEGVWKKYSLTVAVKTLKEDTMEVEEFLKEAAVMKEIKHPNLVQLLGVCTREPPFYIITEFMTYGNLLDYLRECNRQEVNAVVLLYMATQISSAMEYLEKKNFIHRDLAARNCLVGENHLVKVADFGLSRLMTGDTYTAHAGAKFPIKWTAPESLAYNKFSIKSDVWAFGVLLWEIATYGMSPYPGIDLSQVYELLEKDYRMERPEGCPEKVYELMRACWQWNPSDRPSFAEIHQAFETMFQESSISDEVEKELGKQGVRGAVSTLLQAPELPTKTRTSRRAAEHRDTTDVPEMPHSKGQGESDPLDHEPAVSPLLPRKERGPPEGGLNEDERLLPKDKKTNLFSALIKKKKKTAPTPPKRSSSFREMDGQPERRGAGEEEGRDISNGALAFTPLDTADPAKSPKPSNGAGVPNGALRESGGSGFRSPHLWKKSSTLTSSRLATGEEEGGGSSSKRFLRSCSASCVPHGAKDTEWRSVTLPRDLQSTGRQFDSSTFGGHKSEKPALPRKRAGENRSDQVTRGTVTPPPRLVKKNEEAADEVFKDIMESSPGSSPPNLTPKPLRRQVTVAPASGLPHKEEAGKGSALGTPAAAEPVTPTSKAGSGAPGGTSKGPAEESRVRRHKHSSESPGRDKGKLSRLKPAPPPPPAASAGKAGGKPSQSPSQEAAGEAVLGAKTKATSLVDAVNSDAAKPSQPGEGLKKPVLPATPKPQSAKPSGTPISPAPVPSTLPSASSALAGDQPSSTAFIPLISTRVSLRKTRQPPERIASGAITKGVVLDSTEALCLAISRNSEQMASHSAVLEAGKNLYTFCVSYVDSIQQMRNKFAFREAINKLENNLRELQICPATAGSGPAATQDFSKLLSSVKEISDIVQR

| binding [1] | binding (GRK2-wt) | binding [2] | Substance |
| --- | --- | --- | --- |
| binds | binds | – | Abl1 (overexpressed) (from UniProt P00519 1-1130) (enzyme) |
| – | – | binds | purified recombinant GRK2 protein (from UniProt P25098 1-689) |

Reference: publication PMC11358448
